From article PMC10290057
These are yes or no findings as the source states them, for the method shown. In cells and extracts the contact can be indirect. Binding calls can cover weak binding; strength is not graded here. For some assays here: Where a sequence is shown, tags or fusion partners need not be part of it.

The chains behind the UniProt entries cited, without tags or fusion partners.
UniProt P11387: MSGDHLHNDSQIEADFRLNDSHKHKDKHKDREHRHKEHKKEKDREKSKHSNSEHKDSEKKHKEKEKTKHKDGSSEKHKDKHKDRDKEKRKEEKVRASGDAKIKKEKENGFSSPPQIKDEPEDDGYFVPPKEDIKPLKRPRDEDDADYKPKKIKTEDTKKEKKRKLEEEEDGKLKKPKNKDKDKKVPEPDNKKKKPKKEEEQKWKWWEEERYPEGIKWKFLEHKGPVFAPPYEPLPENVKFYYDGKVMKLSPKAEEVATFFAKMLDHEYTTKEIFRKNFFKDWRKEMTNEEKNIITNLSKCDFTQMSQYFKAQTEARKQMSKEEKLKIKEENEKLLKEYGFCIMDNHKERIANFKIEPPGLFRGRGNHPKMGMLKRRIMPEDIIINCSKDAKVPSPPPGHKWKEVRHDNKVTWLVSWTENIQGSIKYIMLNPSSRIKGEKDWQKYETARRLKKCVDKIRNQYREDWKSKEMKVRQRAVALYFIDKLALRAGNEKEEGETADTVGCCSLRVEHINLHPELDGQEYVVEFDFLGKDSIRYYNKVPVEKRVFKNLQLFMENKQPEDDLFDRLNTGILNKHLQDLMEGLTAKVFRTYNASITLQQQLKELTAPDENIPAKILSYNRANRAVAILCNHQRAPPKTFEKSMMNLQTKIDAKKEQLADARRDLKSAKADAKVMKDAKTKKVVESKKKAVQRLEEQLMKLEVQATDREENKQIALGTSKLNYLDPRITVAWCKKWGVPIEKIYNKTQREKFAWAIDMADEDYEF

Legend:
[1] = target: DCAF13-FLAG putative WD40 repeat #1 Δ (human) (UniProt Q9NV06); experiment: co-IP; FLAG-IP (anti-FLAG M2, Protein A/G PLUS-agarose) from benzonase-treated lysates of HCT116 cells transfected with DCAF13-FLAG constructs, CPT (20 µM, 30 min) in presence of BTZ (1 µM); washed with RIPA buffer; immunoblot
[2] = target: 6×His-tagged TOP1 core domain (CD) (human); experiment: pull-down; His-tag pull-down from lysates of HCT116 cells expressing 6×His-TOP1 constructs and DCAF13-FLAG; lysate in IP lysis buffer, sonicated, benzonase-treated, then Ni-NTA-agarose overnight at 4 °C in Buffer A (6 M guanidine-HCl, 0.1 M Na2HPO4/NaH2PO4, 10 mM imidazole pH 8.0); immunoblot; cells treated with DMSO or CPT (20 µM, 30 min) ± APH (10 µM), or CPT with BTZ (1 µM)

Molecule: TOP1, endogenous (co-precipitated with DCAF13-FLAG constructs) (from UniProt P11387 1-765) (enzyme)
- binding [1]: binds

B1: DCAF13-FLAG (DDB1 and Cullin Associated Factor 13), wild type (protein, UniProt Q9NV06 1-445)
chain: MKVKMLSRNPDNYVRETKLDLQRVPRNYDPALHPFEVPREYIRALNATKLERVFAKPFLASLDGHRDGVNCLAKHPEKLATVLSGACDGEVRIWNLTQRNCIRTIQAHEGFVRGICTRFCGTSFFTVGDDKTVKQWKMDGPGYGDEEEPLHTILGKTVYTGIDHHWKEAVFATCGQQVDIWDEQRTNPICSMTWGFDSISSVKFNPIETFLLGSCASDRNIVLYDMRQATPLKKVILDMRTNTICWNPMEAFIFTAANEDYNLYTFDMRALDTPVMVHMDHVSAVLDVDYSPTGKEFVSASFDKSIRIFPVDKSRSREVYHTKRMQHVICVKWTSDSKYIMCGSDEMNIRLWKANASEKLGVLTSREKAAKDYNQKLKEKFQHYPHIKRIARHRHLPKSIYSQIQEQRIMKEARRRKEVNRIKHSKPGSVPLVSEKKKHVVAVVK
- binding [2]: binds
